From doi:10.1101/2020.11.12.379313

Biological target: full-length APP (UniProt P05067)
Test: co-IP

binding: binds
Substance: human GSAP-16k with HA tag (a.a. 733 to a.a. 854) (from UniProt A4D1B5 733-854) (domain or fragment)

Results are given in words; binding and its absence hold for the method and conditions named. Binding seen in cells or lysates may run through a third protein. Binding calls can cover weak binding; strength is not graded here.
